System: central effects of 5-hydroxytryptophan
Assay: Potentiation of the central effects of 5-hydroxytryptophan (5-HTP)
Assay type: in vivo
Settings: Mus musculus, ip; Swiss mice, I.P., 30 minutes before 300 mg/kg 5-HTP I.P.; observed 30 min later for 1 min; read-out: Potentiation of the 5-HTP ED50 DE50
Method: This potentiation objectifying the axonal blocking of the reabsorption of the seratonin at the serotoninergic nerve ends was studied by the method described by T. M. Pugsley and […] 33, 57 (1977)]: […] The mice are observed 30 min later, for 1 min, during which the following sterotyped movements are classified: extension of the hind paws, trembling, excitement, head shaking.

Cl.O=c1n(CCCN2CCN(c3cccc(Cl)c3)CC2)nc2ccccn12 [Trazodone Hydrochloride, 2-[3-[4-(3-chlorophenyl)-1-piperazinyl]propyl]-1,2,4-triazolo[4,3-a]pyridin-3 (2H)-one hydrochloride, reference compound]
ED50: 20 mg/kg
